Assay results as given in US7662915 (dated 2010).

Test: general procedure: Fmoc solid-phase peptide synthesis; Link-amide resin; 2-CLTR (2-chlorotrityl resin); Bop/HOBt/DIPEA
Conditions: HPLC (Waters Alliance, Nova-Pak C18, 0.1% TFA water/AcCN gradient); for final HPLC purity: whole synthesis, scale of the general procedure 1.0 mmol

Substance | final HPLC purity | other results
1,12-diNsc-GRF(1-29) | 98% up | 
21-Nsc-GRF(1-29) | 98% up | 
Boc-Tyr-Ala-Asp-Ala-Ile-Phe-Thr-Asn-Ser-Tyr^10-Arg-Lys(Boc)-Val-Leu-Gly-Gln-Leu-Ser-Ala-Arg^20-Lys-Leu-Leu-Gln-Asp-Ile-Met-Ser-Arg-NH2 (SEQ ID NO.: 2) |  | crude HPLC purity (late stage modification step): 92% up
Fmoc-Cys^1-Ser-Asn-Leu-Ser-Thr-Cys^7-Val-Leu-Gly^10-Lys(Fmoc)-Leu-Ser-Gln-Glu-Leu-His-Lys-Leu-Gln^20-Thr-Tyr-Pro-Arg-Thr-Asn-Thr-Gly-Ser-Gly^30-Thr-Pro-NH2(SEQ ID NO.: 1)(1,7-disulfide bond) | 98% up | 
Fmoc-Cys^1-Ser-Asn-Leu-Ser-Thr-Cys^7-Val-Leu-Gly^10-Lys-Leu-Ser-Gln-Glu-Leu-His-Lys(Fmoc)-Leu-Gln^20-Thr-Tyr-Pro-Arg-Thr-Asn-Thr-Gly-Ser-Gly^30 -Thr-Pro-NH2 (1,7-disulfide bond)(SEQ ID NO.: 1) |  | final HPLC purity (run 1): 97% up; final HPLC purity (run 2): 98% up
Fmoc-Tyr-Ala-Asp-Ala-Ile-Phe-Thr-Asn-Ser-Tyr^10-Arg-Lys-Val-Leu-Gly-Gln-Leu-Ser-Ala-Arg^20-Lys(Fmoc)-Leu-Leu-Gln-Asp-Ile-Met-Ser-Arg-NH2(SEQ ID NO.: 2) | 98% up | 
H-Cys^1-Ser-Asn-Leu-Ser-Thr-Cys^7-Val-Leu-Gly^10-Lys(Fmoc)-Leu-Ser-Gln -Glu-Leu-His-Lys-Leu-Gln^20-Thr-Tyr-Pro-Arg-Thr-Asn-Thr-Gly-Ser-Gly^30-Thr-Pro-NH2 (1,7-disulfide bond)(SEQ ID NO:1) | 98% up | 
H-Tyr-Ala-Asp-Ala-Ile-Phe-Thr-Asn-Ser-Tyr^10-Arg-Lys(Fmoc)-Val-Leu-Gly-Gln-Leu-Ser-Ala-Arg^20-Lys(Fmoc)-Leu-Leu-Gln-Asp-Ile-Met-Ser-Arg-NH2(SEQ ID NO.: 2) | 96% up | 
